The list is a part of this screen's results and no random one: it is rich in T/C values a quarter to a half above the control, in often repeated tests (any T/C) and in doses without a T/C. Further doses and runs are listed elsewhere. T/C: endpoint of the treated group in % of that of the vehicle group. Some entries give survivors of the animals treated and no T/C: the source files T/C as zero there, which appears to mark a toxic dose or a test without result, not a measured value. Some survivor counts are full or nearly so, which does not show that the dose was tolerated: the source hardly ever lists a survival T/C far under the control, and the zero likely stands for such cases as well. Survivors were counted at the toxicity check, usually on the fifth day, unless a day is given; later deaths do not show. Schedule codes are those of the source, taken here to give the interval after Q, in days (D) or hours (H), and the number of doses after X. Some schedule codes hold Z or #, which are not explained here. Some doses were run more than once; their values stand side by side, smallest first. For survival time, the PubChem record calls one and a half times the control and up active, and a quarter to a half above the control has no call in these data; cut-offs in other NCI protocols can differ. Some T/C values are followed by the survivors on the day toxicity was checked, most often the fifth; where none is given, no animal had died by that day. Counts like (3×) count equal records among those shown.
Test system: BDF1 mice, P1081 chloroleukemia ip, survival T/C
Test: NCI In Vivo Anticancer Drug Screen. Data for tumor model P1081 Chloroleukemia (intraperitoneal) in B6D2F1 (BDF1) mice
Conditions: T/C endpoint: mean survival time, higher T/C = longer survival
Experimental: The antitumor activity of compounds was measured in mice bearing transplantable tumors. Survival or tumor size were measured and the results are expressed as the measurement made in the treated group (T) divided by the measurement made in the vehicle treated control group (C). The tumor model used in this assay is P1081 Chloroleukemia (intraperitoneal) in B6D2F1 (BDF1) mice

[1] = dose: 6.3 mg/kg/injection, schedule: Q01DX Z (ip), vehicle: carboxymethylcellulose (CMC)
[2] = dose: 50.0 mg/kg/injection, schedule: Q01DX Z (ip), vehicle: carboxymethylcellulose (CMC)
[3] = dose: 25.0 mg/kg/injection, schedule: Q01DX010 (ip), vehicle: saline
[4] = dose: 150.0 mg/kg/injection, schedule: Q01DX Z (ip), vehicle: carboxymethylcellulose (CMC)
[5] = dose: 25.0 mg/kg/injection, schedule: Q01DX Z (ip), vehicle: carboxymethylcellulose (CMC)
[6] = dose: 200.0 mg/kg/injection, schedule: Q01DX Z (ip), vehicle: carboxymethylcellulose (CMC)
[7] = dose: 1.25 mg/kg/injection, schedule: Q01DX Z (ip), vehicle: other
[8] = dose: 2.5 mg/kg/injection, schedule: Q01DX Z (ip), vehicle: other
[9] = dose: 200.0 mg/kg/injection, schedule: Q01DX010 (ip), vehicle: saline
[10] = dose: 2.5 mg/kg/injection, schedule: Q01DX Z (ip), vehicle: carboxymethylcellulose (CMC)
[11] = dose: 10.0 mg/kg/injection, schedule: Q01DX010 (ip), vehicle: saline
[12] = dose: 20.0 mg/kg/injection, schedule: Q01DX010 (ip), vehicle: saline
[13] = dose: 10.0 mg/kg/injection, schedule: Q01DX Z (ip), vehicle: carboxymethylcellulose (CMC)
[14] = dose: 20.0 mg/kg/injection, schedule: Q01DX Z (ip), vehicle: carboxymethylcellulose (CMC)
[15] = dose: 150.0 mg/kg/injection, schedule: Q01DX010 (ip), vehicle: saline

## C[n+]1c2ccccc2nc2c(N)cc(N)cc21
dose: 0.8 mg/kg/injection, schedule: Q01DX Z (ip), vehicle: carboxymethylcellulose (CMC)
  survivor count: 6 of 6
dose: 3.1 mg/kg/injection, schedule: Q01DX Z (ip), vehicle: carboxymethylcellulose (CMC)
  survivor count: 6 of 6
[1]
  T/C: 136 % of control
  survivor count: 6 of 6
[2]
  survivor count: 0 of 6

## Cn1cnc([N+](=O)[O-])c1Sc1ncnc2nc[nH]c12
dose: 12.5 mg/kg/injection, schedule: Q01DX Z (ip), vehicle: carboxymethylcellulose (CMC)
  T/C: 146 % of control

## CN(N=O)C(=O)NC(C=O)C(O)C(O)C(O)CO (stereo not drawn)
dose: 400.0 mg/kg/injection, schedule: Q01DX Z (ip), vehicle: saline
  survivor count: 5 of 6

## CCCNc1ncnc2[nH]ncc12
dose: 3.13 mg/kg/injection, schedule: Q01DX010 (ip), vehicle: saline
  survivor count: 6 of 6
dose: 6.25 mg/kg/injection, schedule: Q01DX010 (ip), vehicle: saline
  survivor count: 5 of 6
dose: 12.5 mg/kg/injection, schedule: Q01DX010 (ip), vehicle: saline
  survivor count: 6 of 6
[3]
  survivor count: 6 of 6
dose: 40.0 mg/kg/injection, schedule: Q01DX Z (ip), vehicle: water
  survivor count: 6 of 6

## O=C(Nc1ccc(C2=NCCN2)cc1)c1cccc(C(=O)Nc2ccc(C3=NCCN3)cc2)c1
dose: 128.0 mg/kg/injection, schedule: Q01DX010 (ip), vehicle: saline
  survivor count: 6 of 10
[4]
  T/C: 135 % of control
dose: 300.0 mg/kg/injection, schedule: Q01DX Z (ip), vehicle: water
  survivor count: 3 of 6

## CN1CC[C@]23c4c5ccc(O)c4O[C@H]2C(=O)CC[C@H]3[C@H]1C5
dose: 32.0 mg/kg/injection, schedule: Q01DX010 (ip), vehicle: saline
  survivor count: 6 of 6

## CC[C@@H](c1ccc(O)cc1)[C@@H](CC)c1ccc(O)cc1
dose: 1000.0 mg/kg/injection, schedule: Q01DX Z (sc), vehicle: steroid suspending solution
  survivor count: 6 of 6

## CCCSc1ncnc2nc[nH]c12
[5]
  T/C: 131 % of control
  survivor count: 6 of 6
[2]
  T/C: 143 % of control
  survivor count: 6 of 6
[6]
  survivor count: 1 of 6 and 3 of 6

## CN(Cc1cnc2nc(N)nc(N)c2n1)c1ccc(C(=O)N[C@@H](CCC(=O)O)C(=O)O)cc1
dose: 0.12 mg/kg/injection, schedule: Q01DX Z (ip), vehicle: other
  T/C: 147 % of control
dose: 0.31 mg/kg/injection, schedule: Q01DX Z (ip), vehicle: other
  T/C: 125 % of control
dose: 0.38 mg/kg/injection, schedule: Q01DX010 (ip), vehicle: other
  T/C: 136 and 145 % of control
dose: 0.62 mg/kg/injection, schedule: Q01DX Z (ip), vehicle: other
  T/C: 132 % of control
[7]
  T/C: 115, 119 (2×), 172 % of control
  survivor count: 6 of 6
[8]
  T/C: 90 [5 of 6 alive] and 99 % of control
  survivor count: 6 of 6
dose: 5.0 mg/kg/injection, schedule: Q01DX Z (ip), vehicle: other
  survivor count: 5 of 6 and 6 of 6
dose: 10.0 mg/kg/injection, schedule: Q01DX Z (ip), vehicle: other
  survivor count: 6 of 6

## COc1cc2c(cc1I)-c1c(cc(OC)c(OC)c1OC)CC[C@@H]2NC(C)=O
dose: 338.0 mg/kg/injection, schedule: Q01DX010 (ip), vehicle: saline
  survivor count: 4 of 6
dose: 507.0 mg/kg/injection, schedule: Q01DX010 (ip), vehicle: saline
  survivor count: 5 of 6

## COc1cc(-c2ccc(Nc3ccccc3C(=O)O)c(OC)c2)ccc1Nc1ccccc1C(=O)O
[3]
  T/C: 144 % of control
dose: 50.0 mg/kg/injection, schedule: Q01DX010 (ip), vehicle: saline
  T/C: 133 and 138 % of control
dose: 100.0 mg/kg/injection, schedule: Q01DX010 (ip), vehicle: saline
  T/C: 127 and 133 % of control [5 of 6 alive]
[9]
  survivor count: 2 of 6

## CN(C)[C@@H]1C(=O)C(C(N)=O)=C(O)[C@@]2(O)C(=O)C3=C(O)c4c(O)cccc4C[C@H]3C[C@@H]12
dose: 60.0 mg/kg/injection, schedule: Q01DX010 (ip), vehicle: saline
  survivor count: 7 of 7
dose: 120.0 mg/kg/injection, schedule: Q01DX010 (ip), vehicle: saline
  survivor count: 0 of 7

## NC(Cc1ccc(N(CCCl)CCCl)cc1)C(=O)O (stereo not drawn)
[10]
  T/C: 140 % of control
dose: 5.0 mg/kg/injection, schedule: Q01DX010 (ip), vehicle: saline
  T/C: 130 % of control
[11]
  T/C: 144 % of control
[12]
  survivor count: 6 of 6

## COC12C(COC(N)=O)C3=C(C(=O)C(C)=C(N)C3=O)N1CC1C2N1C (stereo not drawn)
[10]
  T/C: 132 % of control
dose: 5.0 mg/kg/injection, schedule: Q01DX Z (ip), vehicle: carboxymethylcellulose (CMC)
  T/C: 147 % of control
[13]
  T/C: 144 % of control
[14]
  survivor count: 6 of 6

## CCN(CC)c1ccc2cc3ccc(=[N+](CC)CC)cc-3oc2c1
[13]
  survivor count: 6 of 6
[14]
  survivor count: 0 of 6

## O=C1C(NC(=O)C2CCCCC2)=C(N2CC2)C(=O)C(NC(=O)C2CCCCC2)=C1N1CC1
dose: 18.8 mg/kg/injection, schedule: Q01DX Z (ip), vehicle: carboxymethylcellulose (CMC)
  T/C: 128 % of control
dose: 37.5 mg/kg/injection, schedule: Q01DX Z (ip), vehicle: carboxymethylcellulose (CMC)
  survivor count: 6 of 6
dose: 75.0 mg/kg/injection, schedule: Q01DX Z (ip), vehicle: carboxymethylcellulose (CMC)
  survivor count: 6 of 6
[4]
  survivor count: 6 of 6
[9]
  survivor count: 4 of 6
dose: 300.0 mg/kg/injection, schedule: Q01DX Z (ip), vehicle: carboxymethylcellulose (CMC)
  survivor count: 6 of 6

## CCOC(=O)c1[nH]c2ccccc2c1CN(CCCl)CCCl
[11]
  survivor count: 6 of 6
[12]
  survivor count: 6 of 6
dose: 40.0 mg/kg/injection, schedule: Q01DX010 (ip), vehicle: saline
  survivor count: 6 of 6
dose: 80.0 mg/kg/injection, schedule: Q01DX010 (ip), vehicle: saline
  survivor count: 0 of 6

## CS(=O)(=O)OCCCl
[15]
  T/C: 135 % of control
  survivor count: 4 of 6
[6]
  survivor count: 1 of 6 and 3 of 6
dose: 400.0 mg/kg/injection, schedule: Q01DX Z (ip), vehicle: carboxymethylcellulose (CMC)
  survivor count: 0 of 6
dose: 800.0 mg/kg/injection, schedule: Q01DX Z (ip), vehicle: carboxymethylcellulose (CMC)
  survivor count: 0 of 6
dose: 4000.0 mg/kg/injection, schedule: Q01DX Z (ip), vehicle: carboxymethylcellulose (CMC)
  survivor count: 0 of 6

## Nc1nc(=S)c2[nH]cnc2[nH]1
dose: 0.12 mg/kg/injection, schedule: Q01DX Z (ip), vehicle: carboxymethylcellulose (CMC)
  T/C: 134 % of control
dose: 0.5 mg/kg/injection, schedule: Q01DX Z (ip), vehicle: carboxymethylcellulose (CMC)
  T/C: 147 % of control
dose: 1.25 mg/kg/injection, schedule: Q01DX010 (ip), vehicle: other
  T/C: 127 % of control
dose: 2.0 mg/kg/injection, schedule: Q01DX Z (ip), vehicle: carboxymethylcellulose (CMC)
  survivor count: 6 of 6
dose: 5.0 mg/kg/injection, schedule: Q01DX010 (ip), vehicle: other
  survivor count: 6 of 6
dose: 10.0 mg/kg/injection, schedule: Q01DX010 (ip), vehicle: other
  survivor count: 6 of 6
dose: 125.0 micrograms/kg/injection, schedule: Q01DX Z (ip), vehicle: carboxymethylcellulose (CMC)
  T/C: 146 % of control
